Test results as given in PubChem BioAssay AID2739 (Broad Institute, 2010).
The other results are listed elsewhere or left out. Where no call is shown, the source marks the result inconclusive.

Sequences of proteins named here, by UniProt entry; tags and fusion partners are left off. A change or cut given only in a name is not applied to a line headed by its entry.
UniProt Q9XUB2: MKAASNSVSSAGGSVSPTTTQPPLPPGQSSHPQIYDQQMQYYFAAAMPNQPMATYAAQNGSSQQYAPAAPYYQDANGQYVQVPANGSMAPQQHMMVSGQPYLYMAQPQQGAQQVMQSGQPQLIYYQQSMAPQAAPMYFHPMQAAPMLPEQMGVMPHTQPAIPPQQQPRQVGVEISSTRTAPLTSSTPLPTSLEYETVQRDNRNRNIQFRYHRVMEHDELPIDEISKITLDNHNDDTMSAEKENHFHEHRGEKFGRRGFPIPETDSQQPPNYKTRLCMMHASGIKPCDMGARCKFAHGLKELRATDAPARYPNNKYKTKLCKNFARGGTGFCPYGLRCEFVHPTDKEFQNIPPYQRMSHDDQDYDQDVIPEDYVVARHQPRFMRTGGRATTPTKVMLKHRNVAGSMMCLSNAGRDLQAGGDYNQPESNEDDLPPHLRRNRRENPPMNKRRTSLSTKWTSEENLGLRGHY

Target: Zinc finger protein mex-5 (Caenorhabditis elegans) (UniProt Q9XUB2)
Assay: inhibitors of MEX-5 RNA binding, dose response, biochemical, fluorescence polarization, MBP-MEX-5, FITC-TCR2 RNA (AID 2739)
Conditions: MBP-MEX-5 / FITC-TCR2 RNA fluorescence polarization, 1 h; at 135 µM (top of the series)

Oc1ccc(CCNc2c3ccccc3nc3ccccc23)cc1O
activity, negative = inhibition: 90.1%
